The list is a part of this screen's results and no random one: it gathers tests that were run many times, whatever their T/C, doses with no T/C, and many T/C values between a quarter and a half above the control. Further doses and runs are listed elsewhere. T/C is the treated group as % of the vehicle group. Some entries give survivors of the animals treated and no T/C: the source files T/C as zero there, which appears to mark a toxic dose or a test without result, not a measured value. Some doses without a T/C left all or most animals alive at the check, yet need not have been tolerated: survival well below the control is almost never listed, so the zero probably covers shortened survival too. Counts of survivors are from the toxicity check (mostly the fifth day) where no day follows; animals may have died later. Schedule codes are those of the source, taken here to give the interval after Q, in days (D) or hours (H), and the number of doses after X. Some entries hold several experiments; the values are given in rising order. Some schedule codes hold Z or #, which are not explained here. Where survival is the endpoint, this PubChem deposit counts one and a half times the control or more as active, and values a quarter to a half above the control carry no call in these data; other NCI protocols may use other cut-offs. Additions like (4×) count equal records among those shown. Some T/C values carry the count of animals alive at the toxicity check (mostly the fifth day); without a count, all were alive then.
Tested on: L1210 leukemia ip in BDF1 mice, survival T/C
Experiment: NCI In Vivo Anticancer Drug Screen. Data for tumor model L1210 Leukemia (intraperitoneal) in B6D2F1 (BDF1) mice
Settings: T/C endpoint: mean survival time, higher T/C = longer survival
[1] = dose: 50.0 mg/kg/injection, schedule: Q01DX009 (ip), vehicle: Klucel (hydroxypropylcellulose) (HPC)
[2] = dose: 400.0 mg/kg/injection, schedule: Q01DX009 (ip), vehicle: saline
[3] = dose: 200.0 mg/kg/injection, schedule: Q01DX009 (ip), vehicle: Klucel (hydroxypropylcellulose) (HPC)
[4] = dose: 400.0 mg/kg/injection, schedule: Q01DX009 (ip), vehicle: Klucel (hydroxypropylcellulose) (HPC)

SMILES: CC(=O)c1ccc2c(c1)N(CCCN1CCN(CCO)CC1)c1ccccc1S2
- survivor count (dose: 6.25 mg/kg/injection, schedule: Q01DX009 (ip), vehicle: Klucel (hydroxypropylcellulose) (HPC)): 4 of 6
- T/C (dose: 6.25 mg/kg/injection, schedule: Q01DX009 (ip), vehicle: saline): 125 % of control
- T/C (dose: 12.5 mg/kg/injection, schedule: Q01DX009 (ip), vehicle: saline): 127 (2×) and 147 % of control
- survivor count (dose: 18.5 mg/kg/injection, schedule: Q01DX009 (ip), vehicle: Klucel (hydroxypropylcellulose) (HPC)): 4 of 6
- survivor count (dose: 25.0 mg/kg/injection, schedule: Q01DX009 (ip), vehicle: Klucel (hydroxypropylcellulose) (HPC)): 3 of 6
- T/C (dose: 25.0 mg/kg/injection, schedule: Q01DX009 (ip), vehicle: saline): 133 % of control
- survivor count (dose: 25.0 mg/kg/injection, schedule: Q04DX003 (ip), vehicle: saline): 2 of 4
- survivor count [1]: 5 of 6
- survivor count (dose: 50.0 mg/kg/injection, schedule: Q01DX009 (ip), vehicle: saline): 1 of 6 and 5 of 6
- survivor count (dose: 50.0 mg/kg/injection, schedule: Q04DX003 (ip), vehicle: saline): 2 of 4
- survivor count (dose: 100.0 mg/kg/injection, schedule: Q01DX009 (ip), vehicle: saline): 0 of 6
- survivor count (dose: 100.0 mg/kg/injection, schedule: Q04DX003 (ip), vehicle: saline): 0 of 4
- survivor count (dose: 200.0 mg/kg/injection, schedule: Q01DX009 (ip), vehicle: saline): 0 of 6
- survivor count [2]: 0 of 6

SMILES: CCCCCCCCCCCCCCCCS(=O)(=O)c1ccc(S(=O)(=O)N/N=c2/sc3ccc(S(=O)(=O)O)cc3n2C)cc1C(=O)O
- survivor count (dose: 200.0 mg/kg/injection, schedule: Q01DX009 (ip), vehicle: saline with Tween-80): 0 of 3

SMILES: CCOS(=O)(=O)c1ccc([N+](=O)[O-])cc1[N+](=O)[O-]
- survivor count [2]: 3 of 6

SMILES: CC1(C)C(=NNc2ccccc2)C(C)(C)C1=NNc1ccccc1
- survivor count [1]: 6 of 6
- survivor count [3]: 5 of 6
- survivor count [4]: 6 of 6

SMILES: COc1cc2cc3c4cc(OC)c(OC)cc4cc[n+]3c(/C=C/c3cccc(O)c3)c2cc1OC
- T/C (dose: 100.0 mg/kg/injection, schedule: Q04DX002 (ip), vehicle: carboxymethylcellulose (CMC)): 107, 115, 118, 126 % of control
- T/C (dose: 200.0 mg/kg/injection, schedule: Q04DX002 (ip), vehicle: carboxymethylcellulose (CMC)): 93, 107, 111, 133 % of control

SMILES: ClC(c1ccccc1)C1(Br)C=c2ccccc2=C1 (centres undefined)
- survivor count [4]: 5 of 6

SMILES: CN(C)CCC(O)Cc1ccccc1 (centres undefined)
- survivor count (dose: 400.0 mg/kg/injection, schedule: Q01DX009 (ip), vehicle: acetone): 0 of 6

SMILES: Cc1cnc(C#N)c(-n2ccnc2)n1
- survivor count (dose: 300.0 mg/kg/injection, schedule: Q01DX009 (ip), vehicle: water): 0 of 6
- survivor count (dose: 400.0 mg/kg/injection, schedule: Q04DX003 (ip), vehicle: water): 3 of 6

SMILES: Cc1ccc(C2(O)CCN(CCCC(=O)c3ccc(F)cc3)CC2)cc1
- survivor count (dose: 100.0 mg/kg/injection, schedule: Q01DX009 (ip), vehicle: Klucel (hydroxypropylcellulose) (HPC)): 0 of 6
- survivor count [3]: 0 of 6
- survivor count [4]: 0 of 6

SMILES: O=CN(O)CC(=O)O.[Zn]
- survivor count (dose: 35.0 mg/kg/injection, schedule: Q01DX009 (ip), vehicle: saline): 1 of 6
- survivor count (dose: 55.0 mg/kg/injection, schedule: Q01DX009 (ip), vehicle: saline): 2 of 6
- survivor count (dose: 80.0 mg/kg/injection, schedule: Q01DX009 (ip), vehicle: saline): 0 of 6

SMILES: NCCc1cc(O)c(O)c(S(=O)(=O)c2ccc(N)cc2)c1
- survivor count (dose: 300.0 mg/kg/injection, schedule: Q01DX009 (ip), vehicle: saline): 3 of 6

SMILES: CC1CN=C(c2ccc(NC(=O)c3cccc(C(=O)Nc4ccc(C5=NCC(C)N5)cc4)c3)cc2)N1 (centres undefined)
- T/C (dose: 16.4 mg/kg/injection, schedule: Q01DX Z (ip), vehicle: carboxymethylcellulose (CMC)): 125 and 136 % of control
- T/C (dose: 25.0 mg/kg/injection, schedule: Q01DX Z (ip), vehicle: carboxymethylcellulose (CMC)): 134 and 148 % of control
- T/C (dose: 37.0 mg/kg/injection, schedule: Q01DX Z (ip), vehicle: carboxymethylcellulose (CMC)): 143 % of control
- survivor count (dose: 55.5 mg/kg/injection, schedule: Q01DX Z (ip), vehicle: carboxymethylcellulose (CMC)): 0 of 6
- survivor count (dose: 60.0 mg/kg/injection, schedule: Q01DX Z (ip), vehicle: carboxymethylcellulose (CMC)): 6 of 6
- survivor count (dose: 83.3 mg/kg/injection, schedule: Q01DX Z (ip), vehicle: carboxymethylcellulose (CMC)): 6 of 6
- survivor count (dose: 125.0 mg/kg/injection, schedule: Q01DX Z (ip), vehicle: carboxymethylcellulose (CMC)): 0 of 6
- survivor count (dose: 187.5 mg/kg/injection, schedule: Q01DX Z (ip), vehicle: carboxymethylcellulose (CMC)): 0 of 6
- survivor count (dose: 400.0 mg/kg/injection, schedule: Q## X010 (oral), vehicle: saline): 6 of 6

SMILES: CC(=O)NC(CCC(=O)C=[N+]=N)C(=O)O (centres undefined)
- T/C (dose: 0.4 mg/kg/injection, schedule: Q01DX009 (ip), vehicle: other, evaluated on day 35): 138 % of control
- T/C (dose: 0.4 mg/kg/injection, schedule: Q01DX009 (ip), vehicle: other, evaluated on day 99): 133 % of control
- T/C (dose: 0.6 mg/kg/injection, schedule: Q01DX009 (ip), vehicle: other, evaluated on day 35): 125 % of control
- T/C (dose: 0.6 mg/kg/injection, schedule: Q01DX009 (ip), vehicle: other, evaluated on day 99): 136 % of control
- survivor count (dose: 0.6 mg/kg/injection, schedule: Q01DX009 (ip), vehicle: other): 6 of 6
- survivor count (dose: 0.8 mg/kg/injection, schedule: Q01DX009 (ip), vehicle: other): 5 of 6 and 6 of 6
- T/C (dose: 1.0 mg/kg/injection, schedule: Q01DX001 (ip), vehicle: saline): 125 and 140 % of control
- survivor count (dose: 1.0 mg/kg/injection, schedule: Q01DX009 (ip), vehicle: other): 5 of 6 and 6 of 6
- survivor count (dose: 3.5 mg/kg/injection, schedule: Q01DX009 (ip), vehicle: saline): 6 of 6
- T/C (dose: 5.0 mg/kg/injection, schedule: Q03HX016 (ip), vehicle: other): 127 % of control [9 of 10 alive]
- survivor count (dose: 5.3 mg/kg/injection, schedule: Q01DX009 (ip), vehicle: saline): 6 of 6
- T/C (dose: 8.0 mg/kg/injection, schedule: Q01DX001 (ip), vehicle: saline): 128 % of control
- survivor count (dose: 8.0 mg/kg/injection, schedule: Q01DX009 (ip), vehicle: saline): 4 of 6
- T/C (dose: 8.0 mg/kg/injection, schedule: Q04DX003 (ip), vehicle: other): 142 % of control
- T/C (dose: 10.0 mg/kg/injection, schedule: Q03HX016 (ip), vehicle: other): 140 % of control [8 of 10 alive]
- T/C (dose: 10.0 mg/kg/injection, schedule: Q08DX002 (ip), vehicle: other): 131 % of control
- survivor count (dose: 12.0 mg/kg/injection, schedule: Q01DX009 (ip), vehicle: saline): 5 of 6
- T/C (dose: 20.0 mg/kg/injection, schedule: Q03HX016 (ip), vehicle: other): 146 % of control

Source: PubChem BioAssay AID248 (DTP/NCI, 2004)
